Our source for the T/C and survivor count values is PubChem BioAssay AID248 (DTP/NCI, 2004).

The test system of the experiment is L1210 leukemia ip in BDF1 mice, survival T/C. The experiment can be described thus: NCI In Vivo Anticancer Drug Screen. Data for tumor model L1210 Leukemia (intraperitoneal) in B6D2F1 (BDF1) mice. The following applies: T/C endpoint: mean survival time, higher T/C = longer survival.
Setting [1] is: dose: 100.0 mg/kg/injection, schedule: Q01DX001 (ip), vehicle: saline.
Where [2] appears, read: dose: 200.0 mg/kg/injection, schedule: Q01DX001 (ip), vehicle: saline.
Setting [3] is: dose: 400.0 mg/kg/injection, schedule: Q01DX001 (ip), vehicle: saline.
The mark [4] stands for this setting: dose: 100.0 mg/kg/injection, schedule: Q01DX009 (ip), vehicle: saline.
Where [5] appears, read: dose: 100.0 mg/kg/injection, schedule: Q04DX003 (ip), vehicle: saline.
Setting [6] is: dose: 200.0 mg/kg/injection, schedule: Q01DX009 (ip), vehicle: saline.
[7] abbreviates: dose: 200.0 mg/kg/injection, schedule: Q04DX003 (ip), vehicle: saline.
[8] abbreviates: dose: 400.0 mg/kg/injection, schedule: Q04DX003 (ip), vehicle: saline.

The list does not hold the whole screen: it gathers some chemical classes. Other doses and runs of a compound may be missing. T/C gives the treated animals as a percentage of the vehicle group. Some doses have a count of surviving animals in place of a T/C: the source files T/C as zero there, which appears to mark a toxic dose or a test without result, not a measured value. Some doses without a T/C left all or most animals alive at the check, yet need not have been tolerated: the source hardly ever lists a survival T/C far under the control, and the zero likely stands for such cases as well. Counts of survivors are from the toxicity check (mostly the fifth day) where no day follows; animals may have died later. Schedules are NCI's codes, read here as Q, the interval in days (D) or hours (H), X, the number of doses. For survival time, this PubChem deposit counts one and a half times the control or more as active, and values a quarter to a half above the control carry no call in these data; other NCI protocols may use other cut-offs. Some entries hold several experiments; the values are given in rising order. Some schedules carry Z or #; the key to these is not given. Some T/C values are marked as having no survivor count here; that says nothing about deaths at the dose. Some T/C values carry the count of animals alive at the toxicity check (mostly the fifth day); where neither a count nor a note follows, no animal had died by that day.

For the compound `Cc1c([N+](=O)[O-])cc([N+](=O)[O-])c(-c2c([N+](=O)[O-])cc([N+](=O)[O-])c(C)c2[N+](=O)[O-])c1[N+](=O)[O-]`, the T/C reads like this: (dose: 100.0 mg/kg/injection, schedule: Q01DX009 (ip), vehicle: gum acacia) 89 % of control [survivor count not shown]; (dose: 100.0 mg/kg/injection, schedule: Q04DX003 (ip), vehicle: gum acacia) 98 % of control [survivor count not shown]; (dose: 200.0 mg/kg/injection, schedule: Q01DX009 (ip), vehicle: gum acacia) 86 % of control [survivor count not shown]; (dose: 200.0 mg/kg/injection, schedule: Q04DX003 (ip), vehicle: gum acacia) 95 % of control [survivor count not shown]; (dose: 400.0 mg/kg/injection, schedule: Q04DX003 (ip), vehicle: gum acacia) 93 % of control [survivor count not shown].

On to `O=[N+]([O-])Nc1ccc(N[N+](=O)[O-])nn1`, for which the T/C by setting is: under setting [1], 93 % of control [survivor count not shown]; under setting [2], 102 % of control [survivor count not shown]; under setting [3], 98 % of control [survivor count not shown].

On to `CC(=O)N(CCCl)CCCl`, for which the T/C reads like this: under setting [4], 101 % of control; under setting [5], 117 % of control; under setting [7], 117 % of control; under setting [8], 114 % of control. The survivor count is 4 of 6 under setting [6] and 0 of 6 (dose: 400.0 mg/kg/injection, schedule: Q01DX009 (ip), vehicle: saline).

For `CC1CNP(=O)(N(CCCl)CCCl)OC1` (centres undefined), the T/C by setting is: (dose: 22.0 mg/kg/injection, schedule: Q01DX Z (ip), vehicle: methylcellulose (MC)) 98 % of control; (dose: 44.0 mg/kg/injection, schedule: Q01DX Z (ip), vehicle: methylcellulose (MC)) 103 % of control; (dose: 88.0 mg/kg/injection, schedule: Q01DX Z (ip), vehicle: methylcellulose (MC)) 128 % of control [5 of 6 alive]; (dose: 175.0 mg/kg/injection, schedule: Q01DX Z (ip), vehicle: methylcellulose (MC)) 118 % of control [4 of 6 alive].

For the compound `CC1(C)CC[P+](C)(c2ccccc2)c2ccccc21.F[P-](F)(F)(F)(F)F` (centres undefined), the T/C was 95 % of control (dose: 3.13 mg/kg/injection, schedule: Q01DX009 (ip), vehicle: saline with Tween-80); 100 % of control (dose: 6.25 mg/kg/injection, schedule: Q01DX009 (ip), vehicle: saline with Tween-80); 94 and 106 % of control (dose: 12.5 mg/kg/injection, schedule: Q01DX009 (ip), vehicle: saline with Tween-80). In addition, the survivor count reads like this: (dose: 25.0 mg/kg/injection, schedule: Q01DX009 (ip), vehicle: saline with Tween-80) 2 of 3; (dose: 50.0 mg/kg/injection, schedule: Q01DX009 (ip), vehicle: saline with Tween-80) 0 of 3; (dose: 100.0 mg/kg/injection, schedule: Q01DX009 (ip), vehicle: saline with Tween-80) 0 of 3; (dose: 200.0 mg/kg/injection, schedule: Q01DX009 (ip), vehicle: saline with Tween-80) 0 of 3.

As to `CCC(CO)Nc1c([N+](=O)[O-])cc([N+](=O)[O-])cc1[N+](=O)[O-]` (centres undefined), the T/C runs as follows: (dose: 25.0 mg/kg/injection, schedule: Q01DX009 (ip), vehicle: acetone) 95 % of control; (dose: 50.0 mg/kg/injection, schedule: Q01DX009 (ip), vehicle: acetone) 100 % of control; (dose: 100.0 mg/kg/injection, schedule: Q01DX009 (ip), vehicle: acetone) 92 % of control.

In the case of `CCCCP(Cl)CCCC`, the T/C (dose: 100.0 mg/kg/injection, schedule: Q04DX003 (ip), vehicle: Klucel (hydroxypropylcellulose) (HPC)) was 105 % of control and the T/C (dose: 200.0 mg/kg/injection, schedule: Q04DX003 (ip), vehicle: Klucel (hydroxypropylcellulose) (HPC)) was 99 % of control. Under “dose: 400.0 mg/kg/injection, schedule: Q04DX003 (ip), vehicle: Klucel (hydroxypropylcellulose) (HPC)”, the survivor count is on record as 6 of 6.

`OCCN(CCBr)c1ccccc1`: the T/C is 103 % of control under setting [5], 97 % of control under setting [7] and 95 % of control under setting [8].

For `Cc1ccc2c(c1)C[P+](c1ccccc1)(c1ccccc1)CC2C.F[P-](F)(F)(F)(F)F` (centres undefined), the T/C by setting is: (dose: 25.0 mg/kg/injection, schedule: Q04DX003 (ip), vehicle: saline with Tween-80) 96 % of control; (dose: 50.0 mg/kg/injection, schedule: Q04DX003 (ip), vehicle: saline with Tween-80) 93 % of control. The survivor count (dose: 100.0 mg/kg/injection, schedule: Q04DX003 (ip), vehicle: saline with Tween-80) is reported as 0 of 3.

For the compound `CC1CCN(CCCOC(=O)C(O)(c2ccccc2)c2ccccc2)CCN1C` (centres undefined), the T/C reads like this: (dose: 3.12 mg/kg/injection, schedule: Q01DX009 (ip), vehicle: saline) 105 % of control; (dose: 6.25 mg/kg/injection, schedule: Q01DX009 (ip), vehicle: saline) 97 % of control; (dose: 12.5 mg/kg/injection, schedule: Q01DX009 (ip), vehicle: saline) 103 % of control; (dose: 25.0 mg/kg/injection, schedule: Q01DX009 (ip), vehicle: saline) 111 % of control; (dose: 25.0 mg/kg/injection, schedule: Q04DX003 (ip), vehicle: saline) 95 % of control; (dose: 50.0 mg/kg/injection, schedule: Q04DX003 (ip), vehicle: saline) 95 % of control.

Take `O=P1(N(CCCl)CCCl)NC(O)CCO1` (centres undefined): the T/C is 168 % of control (dose: 44.0 mg/kg/injection, schedule: Q04DX002 (ip), vehicle: DMSO); 187 % of control (dose: 67.0 mg/kg/injection, schedule: Q04DX002 (ip), vehicle: DMSO); 229 % of control (dose: 100.0 mg/kg/injection, schedule: Q04DX002 (ip), vehicle: DMSO); 172 % of control [2 of 3 alive] (dose: 150.0 mg/kg/injection, schedule: Q04DX002 (ip), vehicle: DMSO).

For `CCN(CC)CCOC(=O)C(O)(c1ccccc1C)c1ccccc1C`, where the note is “dose: 75.0 mg/kg/injection, schedule: Q01DX001 (ip), vehicle: other”, the T/C was 100 % of control.

`O=C(/C=C/c1ccc([N+](=O)[O-])cc1[N+](=O)[O-])c1cccc([N+](=O)[O-])c1`: the T/C was 103 % of control (dose: 100.0 mg/kg/injection, schedule: Q04DX002 (ip), vehicle: Klucel (hydroxypropylcellulose) (HPC)); 103 % of control (dose: 200.0 mg/kg/injection, schedule: Q04DX002 (ip), vehicle: Klucel (hydroxypropylcellulose) (HPC)); 100 % of control (dose: 400.0 mg/kg/injection, schedule: Q04DX002 (ip), vehicle: Klucel (hydroxypropylcellulose) (HPC)).

Regarding `CN(C)CCS`, the T/C is 94 % of control [survivor count not shown] (dose: 50.0 mg/kg/injection, schedule: Q01DX009 (ip), vehicle: saline); 107 % of control [survivor count not shown] under setting [4]; 117 % of control [survivor count not shown] under setting [5]; 102 % of control [survivor count not shown] under setting [6]; 95 % of control [survivor count not shown] under setting [7].

As for `CNNC(=O)NP(=O)(NC(=O)NNC)NC(=O)NNC`, the T/C under setting [1] was 97 % of control and the T/C under setting [2] is 92 % of control. Under setting [3], the survivor count was 2 of 4.
